# Data taken from the supplement of paper PMC12823440, “Inhibitors supercharge kinase turnover through native proteolytic circuits” (Nature, 2025).
# By UniProt entry, the sequences of proteins in these tests, tags left out. Where a name states a change or a piece, a line headed by the entry shows the natural chain unless it says otherwise.
# UniProt O15530: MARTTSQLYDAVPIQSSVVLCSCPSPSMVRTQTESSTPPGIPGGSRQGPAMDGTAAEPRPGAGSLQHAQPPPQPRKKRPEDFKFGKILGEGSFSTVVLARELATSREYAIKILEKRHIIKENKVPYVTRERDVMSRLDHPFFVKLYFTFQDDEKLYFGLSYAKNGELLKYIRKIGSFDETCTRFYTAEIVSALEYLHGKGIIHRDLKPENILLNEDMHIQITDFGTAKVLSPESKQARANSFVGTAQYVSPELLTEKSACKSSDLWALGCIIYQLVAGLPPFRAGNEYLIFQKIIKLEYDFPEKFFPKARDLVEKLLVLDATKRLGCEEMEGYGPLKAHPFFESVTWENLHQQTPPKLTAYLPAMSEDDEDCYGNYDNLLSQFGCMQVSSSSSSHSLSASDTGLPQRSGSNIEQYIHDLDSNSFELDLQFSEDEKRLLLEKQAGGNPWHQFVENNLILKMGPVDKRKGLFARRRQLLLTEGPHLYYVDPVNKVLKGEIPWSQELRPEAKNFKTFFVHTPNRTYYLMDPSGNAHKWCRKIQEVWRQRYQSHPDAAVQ
# UniProt P42356, whole entry, looked up: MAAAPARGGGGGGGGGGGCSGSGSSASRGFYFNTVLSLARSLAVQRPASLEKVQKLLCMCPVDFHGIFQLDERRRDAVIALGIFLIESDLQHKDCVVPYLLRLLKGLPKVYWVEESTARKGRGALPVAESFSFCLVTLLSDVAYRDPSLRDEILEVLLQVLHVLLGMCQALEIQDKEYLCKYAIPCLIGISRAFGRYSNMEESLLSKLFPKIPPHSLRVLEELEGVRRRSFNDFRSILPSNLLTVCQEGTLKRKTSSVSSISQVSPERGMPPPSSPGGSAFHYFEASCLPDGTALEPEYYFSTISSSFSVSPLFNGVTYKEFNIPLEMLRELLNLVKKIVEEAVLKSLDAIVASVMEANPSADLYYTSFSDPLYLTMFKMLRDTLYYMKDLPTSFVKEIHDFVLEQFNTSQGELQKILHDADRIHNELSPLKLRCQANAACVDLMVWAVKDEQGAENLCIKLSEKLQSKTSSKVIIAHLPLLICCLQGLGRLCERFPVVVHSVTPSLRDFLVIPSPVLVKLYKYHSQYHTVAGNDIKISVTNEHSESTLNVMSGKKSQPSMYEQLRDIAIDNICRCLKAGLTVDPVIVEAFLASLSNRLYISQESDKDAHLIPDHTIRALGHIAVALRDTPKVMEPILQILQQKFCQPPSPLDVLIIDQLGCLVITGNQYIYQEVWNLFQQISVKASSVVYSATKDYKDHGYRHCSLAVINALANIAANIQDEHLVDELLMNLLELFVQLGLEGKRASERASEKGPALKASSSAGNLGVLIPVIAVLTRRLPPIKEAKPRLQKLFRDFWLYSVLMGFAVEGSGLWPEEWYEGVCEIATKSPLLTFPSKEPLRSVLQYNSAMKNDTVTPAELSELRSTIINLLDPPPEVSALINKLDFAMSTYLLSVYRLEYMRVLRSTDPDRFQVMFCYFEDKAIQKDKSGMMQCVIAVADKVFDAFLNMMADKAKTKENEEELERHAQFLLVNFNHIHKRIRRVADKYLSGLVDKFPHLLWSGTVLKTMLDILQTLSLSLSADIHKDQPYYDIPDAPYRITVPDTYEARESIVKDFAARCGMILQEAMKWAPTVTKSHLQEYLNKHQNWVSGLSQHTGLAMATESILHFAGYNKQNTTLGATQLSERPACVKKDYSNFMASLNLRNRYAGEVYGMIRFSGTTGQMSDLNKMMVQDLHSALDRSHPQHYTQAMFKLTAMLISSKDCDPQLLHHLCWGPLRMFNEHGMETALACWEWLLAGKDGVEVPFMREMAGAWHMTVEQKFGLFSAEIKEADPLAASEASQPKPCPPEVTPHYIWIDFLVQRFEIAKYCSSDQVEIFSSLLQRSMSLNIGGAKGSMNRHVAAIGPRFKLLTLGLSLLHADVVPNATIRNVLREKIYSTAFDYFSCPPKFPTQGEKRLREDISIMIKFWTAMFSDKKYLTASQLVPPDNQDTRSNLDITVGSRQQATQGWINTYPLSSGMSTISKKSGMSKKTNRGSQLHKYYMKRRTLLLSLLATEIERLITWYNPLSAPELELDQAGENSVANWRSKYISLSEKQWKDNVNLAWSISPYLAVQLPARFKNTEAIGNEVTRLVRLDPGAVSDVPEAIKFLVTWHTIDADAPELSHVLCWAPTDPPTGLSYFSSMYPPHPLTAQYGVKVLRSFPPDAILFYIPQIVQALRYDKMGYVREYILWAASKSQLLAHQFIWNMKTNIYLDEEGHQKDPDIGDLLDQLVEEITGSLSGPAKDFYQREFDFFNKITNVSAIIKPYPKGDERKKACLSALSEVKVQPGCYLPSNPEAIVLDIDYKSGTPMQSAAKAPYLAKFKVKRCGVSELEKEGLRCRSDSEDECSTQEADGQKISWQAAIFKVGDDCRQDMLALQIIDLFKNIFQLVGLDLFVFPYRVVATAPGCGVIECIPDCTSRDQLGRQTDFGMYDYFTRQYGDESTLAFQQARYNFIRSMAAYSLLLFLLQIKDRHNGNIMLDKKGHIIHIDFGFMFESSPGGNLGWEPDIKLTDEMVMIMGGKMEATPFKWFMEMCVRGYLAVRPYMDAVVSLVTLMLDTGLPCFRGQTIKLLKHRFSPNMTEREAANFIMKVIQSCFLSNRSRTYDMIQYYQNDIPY
# UniProt Q9UBF8: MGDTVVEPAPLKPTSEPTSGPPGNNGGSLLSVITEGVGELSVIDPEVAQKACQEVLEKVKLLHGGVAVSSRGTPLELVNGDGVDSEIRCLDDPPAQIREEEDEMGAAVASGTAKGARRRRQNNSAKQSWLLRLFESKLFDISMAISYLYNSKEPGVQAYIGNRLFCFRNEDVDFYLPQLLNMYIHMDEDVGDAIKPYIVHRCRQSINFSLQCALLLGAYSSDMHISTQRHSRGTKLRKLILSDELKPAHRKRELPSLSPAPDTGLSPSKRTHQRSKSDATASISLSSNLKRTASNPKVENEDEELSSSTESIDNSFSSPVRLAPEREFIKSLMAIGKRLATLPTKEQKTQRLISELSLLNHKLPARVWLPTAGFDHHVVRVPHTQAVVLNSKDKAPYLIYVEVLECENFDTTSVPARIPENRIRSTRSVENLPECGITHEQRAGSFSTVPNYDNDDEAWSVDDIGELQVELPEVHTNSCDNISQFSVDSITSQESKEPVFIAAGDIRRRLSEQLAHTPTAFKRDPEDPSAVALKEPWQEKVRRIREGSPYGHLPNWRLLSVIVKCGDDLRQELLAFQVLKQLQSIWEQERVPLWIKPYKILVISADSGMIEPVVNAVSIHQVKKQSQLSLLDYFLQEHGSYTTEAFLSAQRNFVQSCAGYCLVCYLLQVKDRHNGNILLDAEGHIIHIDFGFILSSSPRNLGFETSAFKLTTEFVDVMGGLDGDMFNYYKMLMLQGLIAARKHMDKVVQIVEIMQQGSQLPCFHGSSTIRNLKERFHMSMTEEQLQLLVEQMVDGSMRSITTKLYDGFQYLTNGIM
# UniProt Q13131: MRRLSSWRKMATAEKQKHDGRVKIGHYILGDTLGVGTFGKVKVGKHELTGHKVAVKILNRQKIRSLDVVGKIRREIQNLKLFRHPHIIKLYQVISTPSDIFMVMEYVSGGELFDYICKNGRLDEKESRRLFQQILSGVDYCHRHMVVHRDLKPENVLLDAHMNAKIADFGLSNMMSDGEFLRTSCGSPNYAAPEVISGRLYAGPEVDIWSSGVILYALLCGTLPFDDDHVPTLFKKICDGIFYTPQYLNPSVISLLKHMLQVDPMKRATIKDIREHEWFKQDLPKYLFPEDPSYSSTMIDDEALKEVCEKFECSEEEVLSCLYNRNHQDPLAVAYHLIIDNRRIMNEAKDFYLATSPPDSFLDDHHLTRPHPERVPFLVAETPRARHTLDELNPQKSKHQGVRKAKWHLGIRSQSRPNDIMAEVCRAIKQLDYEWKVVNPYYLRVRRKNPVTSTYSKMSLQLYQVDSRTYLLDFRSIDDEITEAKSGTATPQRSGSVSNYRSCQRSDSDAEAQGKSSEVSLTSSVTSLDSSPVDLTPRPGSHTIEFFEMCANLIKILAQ
# UniProt Q05397, whole entry, looked up: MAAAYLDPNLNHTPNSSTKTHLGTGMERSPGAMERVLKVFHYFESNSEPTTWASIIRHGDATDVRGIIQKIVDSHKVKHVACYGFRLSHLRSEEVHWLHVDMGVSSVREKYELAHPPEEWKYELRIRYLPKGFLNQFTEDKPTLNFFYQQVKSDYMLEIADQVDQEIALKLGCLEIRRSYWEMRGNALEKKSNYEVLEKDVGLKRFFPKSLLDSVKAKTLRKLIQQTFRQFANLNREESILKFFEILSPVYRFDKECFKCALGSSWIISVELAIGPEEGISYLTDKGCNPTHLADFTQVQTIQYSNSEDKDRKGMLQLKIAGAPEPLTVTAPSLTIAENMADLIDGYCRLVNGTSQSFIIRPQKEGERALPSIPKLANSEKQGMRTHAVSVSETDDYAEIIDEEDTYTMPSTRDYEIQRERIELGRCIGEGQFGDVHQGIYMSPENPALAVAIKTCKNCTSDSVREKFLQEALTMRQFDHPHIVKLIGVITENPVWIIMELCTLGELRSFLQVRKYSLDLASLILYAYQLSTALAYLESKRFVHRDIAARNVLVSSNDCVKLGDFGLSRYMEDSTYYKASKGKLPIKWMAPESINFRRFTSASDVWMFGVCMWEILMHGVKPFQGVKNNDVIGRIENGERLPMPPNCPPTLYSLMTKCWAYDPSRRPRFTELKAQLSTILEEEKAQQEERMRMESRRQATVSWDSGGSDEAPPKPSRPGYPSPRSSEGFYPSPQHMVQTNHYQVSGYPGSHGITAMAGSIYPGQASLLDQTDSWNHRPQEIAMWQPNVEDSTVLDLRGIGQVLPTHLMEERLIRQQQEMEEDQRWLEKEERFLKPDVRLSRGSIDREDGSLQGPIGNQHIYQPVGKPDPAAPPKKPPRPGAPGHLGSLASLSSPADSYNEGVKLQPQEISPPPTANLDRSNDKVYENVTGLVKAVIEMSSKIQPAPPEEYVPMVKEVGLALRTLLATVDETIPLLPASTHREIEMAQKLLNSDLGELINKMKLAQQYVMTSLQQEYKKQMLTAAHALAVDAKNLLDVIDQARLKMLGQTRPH
# UniProt Q14289, whole entry, looked up: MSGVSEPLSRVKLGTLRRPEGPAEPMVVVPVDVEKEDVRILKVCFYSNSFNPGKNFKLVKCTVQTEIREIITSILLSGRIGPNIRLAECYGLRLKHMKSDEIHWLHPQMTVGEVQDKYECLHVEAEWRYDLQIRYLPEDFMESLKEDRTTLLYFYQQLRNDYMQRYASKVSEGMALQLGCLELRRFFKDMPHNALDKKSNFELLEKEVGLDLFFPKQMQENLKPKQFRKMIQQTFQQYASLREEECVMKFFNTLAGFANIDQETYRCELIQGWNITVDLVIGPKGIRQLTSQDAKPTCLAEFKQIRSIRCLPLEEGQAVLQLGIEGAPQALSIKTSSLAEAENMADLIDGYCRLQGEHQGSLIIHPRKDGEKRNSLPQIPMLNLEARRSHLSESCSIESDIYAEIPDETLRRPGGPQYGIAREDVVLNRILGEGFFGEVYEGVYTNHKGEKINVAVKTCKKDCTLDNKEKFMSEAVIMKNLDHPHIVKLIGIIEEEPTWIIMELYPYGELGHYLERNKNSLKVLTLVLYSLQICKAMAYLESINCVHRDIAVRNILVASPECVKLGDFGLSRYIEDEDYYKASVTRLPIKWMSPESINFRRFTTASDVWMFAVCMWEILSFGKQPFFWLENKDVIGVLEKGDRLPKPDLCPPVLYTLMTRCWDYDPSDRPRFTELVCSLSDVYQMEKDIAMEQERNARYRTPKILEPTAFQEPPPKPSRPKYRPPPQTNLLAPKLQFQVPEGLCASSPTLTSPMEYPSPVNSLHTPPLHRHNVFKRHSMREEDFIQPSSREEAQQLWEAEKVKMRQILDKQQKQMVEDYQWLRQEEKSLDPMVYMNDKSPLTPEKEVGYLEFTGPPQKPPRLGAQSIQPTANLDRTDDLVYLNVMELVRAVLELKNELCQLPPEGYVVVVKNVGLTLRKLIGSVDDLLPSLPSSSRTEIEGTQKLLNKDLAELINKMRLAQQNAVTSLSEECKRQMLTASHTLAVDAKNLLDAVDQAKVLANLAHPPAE
# Counter-ions that a name gives are not always drawn. Some of the results follow. The calls rarely recur for the same compound in another form.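 In K562 cells expressing nanoluciferase-fused kinases, luminescence was recorded at 4 h intervals between 2 and 18 h, normalized as percent of control with DMSO at 100% and a positive control at 0%. A significant (2 sigma) signal drop marks a time point as decreased. The authors' rule for a hit is not shown and takes in more than the number of time points.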
# Legend:
# Assay in all cases: kinase-Nluc reporter destabilization hit call (1 = scored as downregulated) (binary); higher = compound decreases kinase abundance
# Conditions in all cases: K562; 2-18 h
# [1] = molecular target: PDPK1 (UniProt O15530)
# [2] = molecular target: PIK4CA (UniProt P42356)
# [3] = molecular target: PIK4CB (UniProt Q9UBF8)
# [4] = molecular target: PLK1 (UniProt P53350)
# [5] = molecular target: PRKAA1 (UniProt Q13131)
# [6] = molecular target: PRKCA (UniProt P17252)
# [7] = molecular target: PTK2 (UniProt Q05397)
# [8] = molecular target: PTK2B (UniProt Q14289)
# [9] = molecular target: RAF1 (UniProt P04049)
# [10] = molecular target: RAF1_S257L (clone: RAF1_mut) (UniProt P04049)
SMILES,kinase-Nluc reporter destabilization hit call [1],kinase-Nluc reporter destabilization hit call [2],kinase-Nluc reporter destabilization hit call [3],kinase-Nluc reporter destabilization hit call [4],kinase-Nluc reporter destabilization hit call [5],kinase-Nluc reporter destabilization hit call [6],kinase-Nluc reporter destabilization hit call [7],kinase-Nluc reporter destabilization hit call [8],kinase-Nluc reporter destabilization hit call [9],kinase-Nluc reporter destabilization hit call [10]
O=C(Nc1ccc(F)cc1F)[C@H](NC(=S)Nc1cc(C(F)(F)F)cc(C(F)(F)F)c1)c1ccccc1 (2.5 µM),inactive: 0,inactive: 0,inactive: 0,inactive: 0,inactive: 0,inactive: 0,inactive: 0,inactive: 0,inactive: 0,inactive: 0
CCn1c(-c2nonc2N)nc2cnc(Oc3cccc(NC(=O)c4ccc(OCCN5CCOCC5)cc4)c3)cc21 (10 µM),inactive: 0,inactive: 0,inactive: 0,inactive: 0,inactive: 0,inactive: 0,active: 1,inactive: 0,inactive: 0,inactive: 0
CN1CCN(c2ccc(Nc3ncc4nc(Nc5ccccc5)n([C@@H]5CCN(S(=O)(=O)C6CC6)C5)c4n3)cc2)CC1 (2.5 µM),inactive: 0,inactive: 0,inactive: 0,inactive: 0,inactive: 0,inactive: 0,inactive: 0,inactive: 0,inactive: 0,inactive: 0
C=C1C(=O)O[C@@H]2C[C@@]3(C)CCC[C@H](C)C3=C[C@H]12 [Alantolactone] (10 µM),inactive: 0,inactive: 0,inactive: 0,inactive: 0,inactive: 0,inactive: 0,inactive: 0,inactive: 0,inactive: 0,inactive: 0
Cc1noc(C)c1-c1ccc(-c2cc(C(N)=O)c(NC(N)=O)s2)c(O[C@H]2CCNC2)c1 (10 µM),inactive: 0,inactive: 0,inactive: 0,inactive: 0,inactive: 0,inactive: 0,inactive: 0,inactive: 0,inactive: 0,inactive: 0
"O=C(O)c1cc(O)ccc1O [2,5-Dihydroxybenzoic acid] (10 µM)",inactive: 0,inactive: 0,inactive: 0,inactive: 0,inactive: 0,inactive: 0,inactive: 0,inactive: 0,inactive: 0,inactive: 0
CC(=O)c1c(C)c2cnc(Nc3ccc(N4CCN(CCCCNC(=O)COc5cccc6c5C(=O)N(C5CCC(=O)NC5=O)C6=O)CC4)cn3)nc2n(C2CCCC2)c1=O (stereo not given) (10 µM),inactive: 0,inactive: 0,inactive: 0,inactive: 0,inactive: 0,inactive: 0,inactive: 0,inactive: 0,inactive: 0,inactive: 0
c1cc2c(cc1O[C@H]1OC[C@H]3[C@@H]1CO[C@@H]3c1ccc3c(c1)OCO3)OCO2 [Sesamolin] (10 µM),inactive: 0,inactive: 0,inactive: 0,inactive: 0,inactive: 0,inactive: 0,inactive: 0,inactive: 0,inactive: 0,inactive: 0
"O=C(/C=C/c1ccc(O)c(O)c1)OC1CC(OC(=O)/C=C/c2ccc(O)c(O)c2)(C(=O)O)CC(O)C1O (stereo not given) [1,3-Dicaffeoylquinic acid] (10 µM)",inactive: 0,inactive: 0,inactive: 0,inactive: 0,inactive: 0,inactive: 0,inactive: 0,inactive: 0,inactive: 0,inactive: 0
COCCOc1ccc(-c2cn(-c3ccccc3)c3nc[nH]c(=O)c23)cc1 (10 µM),inactive: 0,inactive: 0,inactive: 0,inactive: 0,inactive: 0,inactive: 0,inactive: 0,inactive: 0,inactive: 0,inactive: 0
CNC(=O)Nc1ccc(-c2cc(-c3ccnc(Nc4ccc(C)c(S(=O)(=O)N(C)C)c4)n3)ccn2)cc1 [hSMG-1 inhibitor 11e] (2.5 µM),inactive: 0,inactive: 0,inactive: 0,inactive: 0,inactive: 0,inactive: 0,inactive: 0,inactive: 0,inactive: 0,inactive: 0
O=C(CNC(=O)c1ccc(-c2ccccc2)cc1)NC1CCCc2ccccc21 (stereo not given) [TAO Kinase inhibitor 1] (10 µM),inactive: 0,inactive: 0,inactive: 0,inactive: 0,inactive: 0,inactive: 0,inactive: 0,inactive: 0,inactive: 0,inactive: 0
C=C(CCC=C(C)C)[C@H]1CC[C@]2(C)[C@@H]1[C@H](O)C[C@@H]1[C@@]3(C)CC[C@H](O[C@@H]4O[C@H](CO)[C@@H](O)[C@H](O)[C@H]4O[C@@H]4O[C@H](CO)[C@@H](O)[C@H](O)[C@H]4O)C(C)(C)[C@@H]3CC[C@]12C [Ginsenoside Rk1] (10 µM),inactive: 0,inactive: 0,inactive: 0,inactive: 0,inactive: 0,inactive: 0,inactive: 0,inactive: 0,inactive: 0,inactive: 0
COC1(c2sc3c(N4CCOCC4)nc(-c4cnc(N)nc4)nc3c2C)COC1 (2.5 µM),inactive: 0,inactive: 0,inactive: 0,inactive: 0,inactive: 0,inactive: 0,inactive: 0,inactive: 0,inactive: 0,inactive: 0
Cc1ccc(-c2c(C(=O)CCl)n(CCCO)c3ncnc(N)c23)cc1 (10 µM),inactive: 0,inactive: 0,inactive: 0,inactive: 0,inactive: 0,inactive: 0,inactive: 0,inactive: 0,inactive: 0,inactive: 0
N#Cc1ccc2ncnc(NC3CCC(N4CCOCC4)CC3)c2c1 (stereo not given) (10 µM),inactive: 0,inactive: 0,inactive: 0,inactive: 0,inactive: 0,inactive: 0,inactive: 0,inactive: 0,inactive: 0,inactive: 0
C[C@@H]1C(=O)O[C@H](C)[C@H]1C[C@@H](O)[C@](C)(O)[C@H]1CC[C@@]2(O)C3=CC(=O)[C@@H]4C[C@@H](O)[C@@H](O)C[C@]4(C)[C@H]3CC[C@]12C [Cyasterone] (10 µM),inactive: 0,inactive: 0,inactive: 0,inactive: 0,inactive: 0,inactive: 0,inactive: 0,inactive: 0,inactive: 0,inactive: 0

# Structural class, the entries above with a carbonyl joined to an NH by a bond outside any ring
SMILES,kinase-Nluc reporter destabilization hit call [1],kinase-Nluc reporter destabilization hit call [2],kinase-Nluc reporter destabilization hit call [3],kinase-Nluc reporter destabilization hit call [4],kinase-Nluc reporter destabilization hit call [5],kinase-Nluc reporter destabilization hit call [6],kinase-Nluc reporter destabilization hit call [7],kinase-Nluc reporter destabilization hit call [8],kinase-Nluc reporter destabilization hit call [9],kinase-Nluc reporter destabilization hit call [10]
O=C(Nc1ccc(F)cc1F)[C@H](NC(=S)Nc1cc(C(F)(F)F)cc(C(F)(F)F)c1)c1ccccc1 (2.5 µM),inactive: 0,inactive: 0,inactive: 0,inactive: 0,inactive: 0,inactive: 0,inactive: 0,inactive: 0,inactive: 0,inactive: 0
CCn1c(-c2nonc2N)nc2cnc(Oc3cccc(NC(=O)c4ccc(OCCN5CCOCC5)cc4)c3)cc21 (10 µM),inactive: 0,inactive: 0,inactive: 0,inactive: 0,inactive: 0,inactive: 0,active: 1,inactive: 0,inactive: 0,inactive: 0
Cc1noc(C)c1-c1ccc(-c2cc(C(N)=O)c(NC(N)=O)s2)c(O[C@H]2CCNC2)c1 (10 µM),inactive: 0,inactive: 0,inactive: 0,inactive: 0,inactive: 0,inactive: 0,inactive: 0,inactive: 0,inactive: 0,inactive: 0
CC(=O)c1c(C)c2cnc(Nc3ccc(N4CCN(CCCCNC(=O)COc5cccc6c5C(=O)N(C5CCC(=O)NC5=O)C6=O)CC4)cn3)nc2n(C2CCCC2)c1=O (stereo not given) (10 µM),inactive: 0,inactive: 0,inactive: 0,inactive: 0,inactive: 0,inactive: 0,inactive: 0,inactive: 0,inactive: 0,inactive: 0
CNC(=O)Nc1ccc(-c2cc(-c3ccnc(Nc4ccc(C)c(S(=O)(=O)N(C)C)c4)n3)ccn2)cc1 [hSMG-1 inhibitor 11e] (2.5 µM),inactive: 0,inactive: 0,inactive: 0,inactive: 0,inactive: 0,inactive: 0,inactive: 0,inactive: 0,inactive: 0,inactive: 0
O=C(CNC(=O)c1ccc(-c2ccccc2)cc1)NC1CCCc2ccccc21 (stereo not given) [TAO Kinase inhibitor 1] (10 µM),inactive: 0,inactive: 0,inactive: 0,inactive: 0,inactive: 0,inactive: 0,inactive: 0,inactive: 0,inactive: 0,inactive: 0

# Next records

SMILES,kinase-Nluc reporter destabilization hit call [1],kinase-Nluc reporter destabilization hit call [2],kinase-Nluc reporter destabilization hit call [3],kinase-Nluc reporter destabilization hit call [4],kinase-Nluc reporter destabilization hit call [5],kinase-Nluc reporter destabilization hit call [6],kinase-Nluc reporter destabilization hit call [7],kinase-Nluc reporter destabilization hit call [8],kinase-Nluc reporter destabilization hit call [9],kinase-Nluc reporter destabilization hit call [10]
N#Cc1cccc(-c2c[nH]c3ncnc(N4CCOCC4)c23)c1 (10 µM),inactive: 0,inactive: 0,inactive: 0,inactive: 0,inactive: 0,inactive: 0,inactive: 0,inactive: 0,inactive: 0,inactive: 0
C=CC(=O)Nc1cccc(C)c1Nc1ncc2cc(-c3c(Cl)c(OC)cc(OC)c3Cl)ccc2n1 (2.5 µM),inactive: 0,inactive: 0,inactive: 0,inactive: 0,inactive: 0,inactive: 0,inactive: 0,inactive: 0,inactive: 0,active: 1
CC(C)=CCC[C@](C)(O[C@@H]1O[C@H](CO)[C@@H](O)[C@H](O)[C@H]1O)[C@H]1CC[C@]2(C)[C@@H]1[C@H](O)C[C@@H]1[C@@]3(C)CC[C@H](O)C(C)(C)[C@@H]3[C@@H](O[C@@H]3O[C@H](CO)[C@@H](O)[C@H](O)[C@H]3O[C@@H]3O[C@@H](C)[C@H](O)[C@@H](O)[C@H]3O)C[C@]12C [Ginsenoside Re] (10 µM),inactive: 0,inactive: 0,inactive: 0,inactive: 0,inactive: 0,inactive: 0,inactive: 0,inactive: 0,inactive: 0,inactive: 0
Nc1ncc(-c2cccc(N3CCNCC3)c2)cc1C(=O)Nc1ccncc1 [PKC-iota inhibitor 1] (10 µM),inactive: 0,inactive: 0,inactive: 0,inactive: 0,inactive: 0,inactive: 0,inactive: 0,inactive: 0,inactive: 0,inactive: 0
COc1ccc2c(c1O)OC(C)(C)c1c-2ccc2c1C(=O)N(c1ccc(C(=O)c3ccccc3)cc1)C2=O [Ampkinone] (10 µM),inactive: 0,inactive: 0,inactive: 0,inactive: 0,inactive: 0,inactive: 0,inactive: 0,inactive: 0,inactive: 0,inactive: 0
NC1(Cc2ccc(Cl)cc2)CCN(c2ncnc3[nH]ccc23)CC1 (10 µM),inactive: 0,inactive: 0,inactive: 0,inactive: 0,inactive: 0,inactive: 0,inactive: 0,inactive: 0,inactive: 0,inactive: 0
CC(c1ccc(-c2cnc3c(-c4ccc(S(N)(=O)=O)c5ccccc45)cnn3c2)cc1)N1CCCC1 (stereo not given) (2.5 µM),inactive: 0,inactive: 0,inactive: 0,inactive: 0,inactive: 0,inactive: 0,inactive: 0,inactive: 0,inactive: 0,inactive: 0
CCn1c(C(=O)N(C2CC2)C2CC2)cc2c3c(ncn3C)c(Nc3cc(C)n(C)n3)nc21 (10 µM),inactive: 0,inactive: 0,inactive: 0,inactive: 0,inactive: 0,inactive: 0,inactive: 0,inactive: 0,inactive: 0,inactive: 0
CC(C)c1cnc(-c2cc(Cl)ccc2F)cc1Nc1ccncc1C(=O)NC(CO)CO (2.5 µM),inactive: 0,inactive: 0,inactive: 0,inactive: 0,inactive: 0,inactive: 0,inactive: 0,inactive: 0,inactive: 0,inactive: 0
N[C@H](Cc1c[nH]c2ccccc12)C(=O)N/N=C/c1ccc2nccnc2c1 [Rhosin (hydrochloride)] (10 µM),inactive: 0,inactive: 0,inactive: 0,inactive: 0,inactive: 0,inactive: 0,inactive: 0,inactive: 0,inactive: 0,inactive: 0
Cc1c(CN2CCN(C(=O)[C@H](C)O)CC2)sc2c(N3CCOCC3)nc(-c3cnc(N)nc3)nc12 [Apitolisib] (10 µM),inactive: 0,inactive: 0,inactive: 0,inactive: 0,inactive: 0,inactive: 0,inactive: 0,inactive: 0,inactive: 0,inactive: 0
O=C1c2ccc(Nc3ccc(F)cc3F)cc2CCc2ccc(OC[C@H](O)CO)cc21 [Skepinone-L] (2.5 µM),inactive: 0,inactive: 0,inactive: 0,inactive: 0,inactive: 0,inactive: 0,inactive: 0,inactive: 0,inactive: 0,inactive: 0
C[C@@]1(O)CCC[C@H]1n1c(=O)c(C(F)F)cc2cnc(NC3CCN(S(C)(=O)=O)CC3)nc21 (2.5 µM),inactive: 0,inactive: 0,inactive: 0,inactive: 0,inactive: 0,inactive: 0,inactive: 0,inactive: 0,inactive: 0,inactive: 0
COc1cccc(-n2c(=O)[nH]c3cc(Cl)n(-c4ccc(-c5cccc(OC)c5O)cc4)c3c2=O)c1 (2.5 µM),inactive: 0,inactive: 0,inactive: 0,inactive: 0,inactive: 0,inactive: 0,inactive: 0,inactive: 0,inactive: 0,inactive: 0
Cn1cnc(-c2cc3nccc(Oc4ccc(NC(=S)NC(=O)Cc5ccccc5)cc4F)c3s2)c1 [MGCD-265 analog] (10 µM),inactive: 0,inactive: 0,inactive: 0,inactive: 0,inactive: 0,inactive: 0,active: 1,inactive: 0,inactive: 0,inactive: 0
Nc1nccc(Oc2ccc(NC(=O)c3cn(COP(=O)(O)O)cc(-c4ccc(F)cc4)c3=O)cc2F)c1Cl (10 µM),inactive: 0,inactive: 0,inactive: 0,inactive: 0,inactive: 0,inactive: 0,inactive: 0,inactive: 0,inactive: 0,inactive: 0
